From the supplement of paper PMC10849652
Some of the results follow.

Protein sequences, listed by entry. Tags and fused reporters are not part of them. Lines headed by an entry give the natural chain unless they say otherwise; changes in a name come on top.
UniProt Q8WXX5: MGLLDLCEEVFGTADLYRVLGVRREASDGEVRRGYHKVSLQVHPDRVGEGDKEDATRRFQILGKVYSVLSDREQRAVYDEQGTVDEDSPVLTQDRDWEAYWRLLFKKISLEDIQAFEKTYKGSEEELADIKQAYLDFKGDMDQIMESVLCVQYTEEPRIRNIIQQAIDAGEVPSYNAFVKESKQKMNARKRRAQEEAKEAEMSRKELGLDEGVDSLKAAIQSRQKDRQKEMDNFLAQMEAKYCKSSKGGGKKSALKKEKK
UniProt Q12959, whole entry, looked up: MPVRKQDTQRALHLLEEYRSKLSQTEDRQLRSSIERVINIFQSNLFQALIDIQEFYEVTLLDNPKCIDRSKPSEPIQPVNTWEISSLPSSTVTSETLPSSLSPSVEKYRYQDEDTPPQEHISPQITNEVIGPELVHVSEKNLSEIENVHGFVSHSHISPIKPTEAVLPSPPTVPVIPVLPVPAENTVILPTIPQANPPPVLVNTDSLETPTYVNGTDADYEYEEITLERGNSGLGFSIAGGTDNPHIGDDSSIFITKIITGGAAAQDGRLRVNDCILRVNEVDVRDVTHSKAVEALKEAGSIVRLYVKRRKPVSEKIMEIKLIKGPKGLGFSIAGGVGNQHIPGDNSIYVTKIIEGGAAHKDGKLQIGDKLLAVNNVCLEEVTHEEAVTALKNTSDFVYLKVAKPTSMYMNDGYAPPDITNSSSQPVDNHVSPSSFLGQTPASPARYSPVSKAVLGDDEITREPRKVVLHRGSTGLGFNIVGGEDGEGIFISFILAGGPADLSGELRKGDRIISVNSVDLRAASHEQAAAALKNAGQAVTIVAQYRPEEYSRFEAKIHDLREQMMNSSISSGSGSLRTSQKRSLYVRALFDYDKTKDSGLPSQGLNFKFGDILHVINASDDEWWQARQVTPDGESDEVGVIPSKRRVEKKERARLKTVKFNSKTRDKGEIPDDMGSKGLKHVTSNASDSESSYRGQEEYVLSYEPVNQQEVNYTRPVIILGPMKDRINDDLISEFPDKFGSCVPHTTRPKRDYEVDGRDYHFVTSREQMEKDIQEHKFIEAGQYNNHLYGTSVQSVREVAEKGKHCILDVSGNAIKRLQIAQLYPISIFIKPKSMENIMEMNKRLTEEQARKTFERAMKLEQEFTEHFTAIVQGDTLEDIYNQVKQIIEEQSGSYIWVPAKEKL
UniProt Q9NR28: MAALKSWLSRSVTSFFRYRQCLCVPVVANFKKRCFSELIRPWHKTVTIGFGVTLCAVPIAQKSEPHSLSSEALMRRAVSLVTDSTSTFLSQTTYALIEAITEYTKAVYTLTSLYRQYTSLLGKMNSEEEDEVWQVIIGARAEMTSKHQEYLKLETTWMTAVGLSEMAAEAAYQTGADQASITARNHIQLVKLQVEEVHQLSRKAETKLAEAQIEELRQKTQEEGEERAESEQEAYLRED
UniProt Q7L591: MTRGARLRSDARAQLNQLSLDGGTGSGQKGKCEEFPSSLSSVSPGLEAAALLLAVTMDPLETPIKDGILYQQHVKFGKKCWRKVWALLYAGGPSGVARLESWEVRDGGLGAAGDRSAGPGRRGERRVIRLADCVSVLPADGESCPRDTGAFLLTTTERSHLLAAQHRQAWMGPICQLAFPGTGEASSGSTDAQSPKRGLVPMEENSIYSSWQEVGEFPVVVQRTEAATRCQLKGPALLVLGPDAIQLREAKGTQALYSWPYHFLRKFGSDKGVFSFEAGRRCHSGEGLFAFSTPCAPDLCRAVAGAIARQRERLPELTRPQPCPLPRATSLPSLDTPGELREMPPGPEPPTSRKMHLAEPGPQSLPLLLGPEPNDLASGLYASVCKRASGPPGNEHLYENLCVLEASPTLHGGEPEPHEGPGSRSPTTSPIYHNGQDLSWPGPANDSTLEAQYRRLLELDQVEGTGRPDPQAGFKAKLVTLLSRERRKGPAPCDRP
UniProt Q9H3Z4: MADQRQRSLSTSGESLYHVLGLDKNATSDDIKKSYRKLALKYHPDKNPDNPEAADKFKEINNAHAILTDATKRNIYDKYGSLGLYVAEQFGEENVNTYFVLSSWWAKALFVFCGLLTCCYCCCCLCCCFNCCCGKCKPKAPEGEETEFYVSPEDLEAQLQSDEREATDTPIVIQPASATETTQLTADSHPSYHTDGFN
UniProt Q8NF50: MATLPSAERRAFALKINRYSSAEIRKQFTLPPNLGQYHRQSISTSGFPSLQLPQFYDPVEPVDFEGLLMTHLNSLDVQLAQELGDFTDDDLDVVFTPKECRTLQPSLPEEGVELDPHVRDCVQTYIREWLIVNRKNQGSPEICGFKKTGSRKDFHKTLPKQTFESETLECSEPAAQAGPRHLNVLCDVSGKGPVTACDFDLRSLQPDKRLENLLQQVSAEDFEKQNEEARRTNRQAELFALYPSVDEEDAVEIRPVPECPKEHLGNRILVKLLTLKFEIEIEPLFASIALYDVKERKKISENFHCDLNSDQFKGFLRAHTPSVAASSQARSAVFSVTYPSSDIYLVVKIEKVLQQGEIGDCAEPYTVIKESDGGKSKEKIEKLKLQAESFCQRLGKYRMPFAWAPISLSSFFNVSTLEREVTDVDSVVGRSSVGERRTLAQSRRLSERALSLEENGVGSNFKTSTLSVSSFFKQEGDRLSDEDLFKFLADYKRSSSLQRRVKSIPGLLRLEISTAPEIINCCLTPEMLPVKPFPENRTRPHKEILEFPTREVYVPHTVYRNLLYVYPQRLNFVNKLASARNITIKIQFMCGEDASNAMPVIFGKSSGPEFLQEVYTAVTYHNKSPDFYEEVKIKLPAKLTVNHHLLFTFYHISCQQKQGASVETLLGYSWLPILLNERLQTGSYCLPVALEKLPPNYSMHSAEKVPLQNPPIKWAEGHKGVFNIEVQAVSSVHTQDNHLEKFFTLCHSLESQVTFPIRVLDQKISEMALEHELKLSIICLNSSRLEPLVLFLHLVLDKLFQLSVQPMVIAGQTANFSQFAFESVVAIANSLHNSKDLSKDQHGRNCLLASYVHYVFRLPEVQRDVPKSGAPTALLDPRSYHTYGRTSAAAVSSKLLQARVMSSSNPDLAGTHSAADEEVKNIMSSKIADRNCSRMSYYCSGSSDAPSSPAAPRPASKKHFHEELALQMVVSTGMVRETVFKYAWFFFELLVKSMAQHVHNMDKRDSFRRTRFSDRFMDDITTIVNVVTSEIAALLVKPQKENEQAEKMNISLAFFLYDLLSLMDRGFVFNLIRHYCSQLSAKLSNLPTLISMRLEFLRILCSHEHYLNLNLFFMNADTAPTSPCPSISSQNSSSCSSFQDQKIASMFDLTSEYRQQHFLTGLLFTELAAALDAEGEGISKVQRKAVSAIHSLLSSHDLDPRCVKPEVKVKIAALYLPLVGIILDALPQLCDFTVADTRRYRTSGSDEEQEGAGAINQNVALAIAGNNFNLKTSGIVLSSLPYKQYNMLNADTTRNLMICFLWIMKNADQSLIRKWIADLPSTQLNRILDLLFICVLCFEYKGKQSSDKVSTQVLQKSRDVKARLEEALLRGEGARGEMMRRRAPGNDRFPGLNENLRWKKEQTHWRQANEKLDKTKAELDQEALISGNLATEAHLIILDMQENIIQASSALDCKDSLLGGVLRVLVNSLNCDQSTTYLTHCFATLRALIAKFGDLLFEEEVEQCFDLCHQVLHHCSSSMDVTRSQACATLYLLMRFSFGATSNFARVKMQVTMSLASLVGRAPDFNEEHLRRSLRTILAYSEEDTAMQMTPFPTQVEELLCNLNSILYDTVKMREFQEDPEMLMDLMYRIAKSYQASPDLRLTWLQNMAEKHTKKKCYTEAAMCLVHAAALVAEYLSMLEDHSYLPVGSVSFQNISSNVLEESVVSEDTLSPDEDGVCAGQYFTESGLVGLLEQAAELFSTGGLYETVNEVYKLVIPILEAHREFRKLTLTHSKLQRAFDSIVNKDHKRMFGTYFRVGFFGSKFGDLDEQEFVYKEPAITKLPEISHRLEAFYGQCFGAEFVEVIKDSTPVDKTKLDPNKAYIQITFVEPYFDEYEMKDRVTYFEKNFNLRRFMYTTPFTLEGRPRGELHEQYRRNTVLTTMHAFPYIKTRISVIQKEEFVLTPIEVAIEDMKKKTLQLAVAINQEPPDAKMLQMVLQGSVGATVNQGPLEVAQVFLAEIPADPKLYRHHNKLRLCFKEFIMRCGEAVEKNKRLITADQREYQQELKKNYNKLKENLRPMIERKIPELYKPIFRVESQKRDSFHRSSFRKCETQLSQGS
UniProt Q08495: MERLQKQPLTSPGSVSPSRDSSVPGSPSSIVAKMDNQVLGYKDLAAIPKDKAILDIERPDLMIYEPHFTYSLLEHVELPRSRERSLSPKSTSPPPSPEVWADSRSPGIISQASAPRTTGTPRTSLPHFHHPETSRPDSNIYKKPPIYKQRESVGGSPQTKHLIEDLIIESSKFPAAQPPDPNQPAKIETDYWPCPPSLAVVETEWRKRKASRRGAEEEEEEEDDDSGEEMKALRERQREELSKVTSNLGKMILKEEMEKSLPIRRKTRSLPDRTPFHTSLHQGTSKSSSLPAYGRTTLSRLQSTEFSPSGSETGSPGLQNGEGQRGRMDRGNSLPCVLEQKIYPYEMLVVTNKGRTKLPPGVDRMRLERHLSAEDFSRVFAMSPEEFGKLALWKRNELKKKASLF
UniProt Q8IY37: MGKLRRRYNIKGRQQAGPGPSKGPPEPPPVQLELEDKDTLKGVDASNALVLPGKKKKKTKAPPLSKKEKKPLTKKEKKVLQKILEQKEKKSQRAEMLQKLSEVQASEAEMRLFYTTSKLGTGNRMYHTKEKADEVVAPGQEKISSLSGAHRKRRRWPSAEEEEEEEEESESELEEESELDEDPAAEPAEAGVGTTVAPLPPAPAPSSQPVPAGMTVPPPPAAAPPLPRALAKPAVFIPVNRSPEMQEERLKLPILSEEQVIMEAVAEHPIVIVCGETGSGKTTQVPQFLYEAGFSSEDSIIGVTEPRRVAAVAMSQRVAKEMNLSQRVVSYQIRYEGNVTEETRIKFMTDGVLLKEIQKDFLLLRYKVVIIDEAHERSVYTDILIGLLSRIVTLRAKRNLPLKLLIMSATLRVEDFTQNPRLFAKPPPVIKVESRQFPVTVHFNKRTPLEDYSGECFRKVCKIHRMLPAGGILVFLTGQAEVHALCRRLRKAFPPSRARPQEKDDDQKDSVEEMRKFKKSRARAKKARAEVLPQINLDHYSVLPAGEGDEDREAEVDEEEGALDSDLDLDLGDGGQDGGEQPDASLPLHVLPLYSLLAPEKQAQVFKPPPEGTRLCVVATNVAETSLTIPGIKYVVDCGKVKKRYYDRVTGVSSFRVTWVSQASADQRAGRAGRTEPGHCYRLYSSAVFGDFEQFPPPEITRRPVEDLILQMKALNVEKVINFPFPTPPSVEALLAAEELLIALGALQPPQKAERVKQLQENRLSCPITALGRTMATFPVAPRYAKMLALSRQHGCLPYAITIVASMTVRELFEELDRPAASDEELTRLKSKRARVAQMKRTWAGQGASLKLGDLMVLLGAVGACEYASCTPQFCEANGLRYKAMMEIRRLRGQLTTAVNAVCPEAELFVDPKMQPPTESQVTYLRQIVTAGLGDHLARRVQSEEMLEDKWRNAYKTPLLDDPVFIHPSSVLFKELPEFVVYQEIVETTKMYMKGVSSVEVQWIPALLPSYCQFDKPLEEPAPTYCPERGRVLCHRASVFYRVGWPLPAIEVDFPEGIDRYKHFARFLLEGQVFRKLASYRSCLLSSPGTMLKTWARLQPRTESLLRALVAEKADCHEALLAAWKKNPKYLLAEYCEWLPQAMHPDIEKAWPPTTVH
UniProt O00429, whole entry, looked up: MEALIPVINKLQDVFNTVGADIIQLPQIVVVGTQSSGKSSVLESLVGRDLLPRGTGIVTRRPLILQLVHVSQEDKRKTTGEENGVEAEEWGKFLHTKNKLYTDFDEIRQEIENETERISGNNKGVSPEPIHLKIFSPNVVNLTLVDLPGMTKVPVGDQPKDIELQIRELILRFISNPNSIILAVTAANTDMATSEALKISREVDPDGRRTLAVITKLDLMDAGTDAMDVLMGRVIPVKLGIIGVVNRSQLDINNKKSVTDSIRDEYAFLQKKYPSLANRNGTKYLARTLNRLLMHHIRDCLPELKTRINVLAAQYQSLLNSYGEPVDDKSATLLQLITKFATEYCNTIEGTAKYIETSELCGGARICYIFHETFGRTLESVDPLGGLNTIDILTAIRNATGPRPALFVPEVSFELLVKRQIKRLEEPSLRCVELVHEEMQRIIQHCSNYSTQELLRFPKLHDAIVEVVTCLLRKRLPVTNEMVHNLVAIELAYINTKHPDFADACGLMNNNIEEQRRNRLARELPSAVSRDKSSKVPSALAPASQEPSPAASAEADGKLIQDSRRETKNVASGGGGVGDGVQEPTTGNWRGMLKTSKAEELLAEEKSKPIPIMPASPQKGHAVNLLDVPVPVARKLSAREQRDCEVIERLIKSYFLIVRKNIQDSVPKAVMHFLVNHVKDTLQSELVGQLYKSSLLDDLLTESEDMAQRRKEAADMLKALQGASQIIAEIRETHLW

Tests used:
Experiment in all cases: log2 fold change, soluble protein after heating vs DMSO (PISA); higher = thermal stabilisation; K562 lysate, 10 uM; active = over 0.2 and 3.5 SD of the protein, either way, in both replicates (recomputed)
[1] = compound: C#Cc1cccc(Nc2ncnc3cc(OCCOC)c(OCCOC)cc23)c1 [erlotinib]
Summary of the method: (§1)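 A 30 min treatment with 10 μM compound was applied to crude K562 extract at 1 mg/mL protein in PBS pH 7.4 with 1 mM MgCl2. Heating for 3 min spanned 48°C-58°C, after which aliquots were pooled, adjusted to 0.5% NP-40 at 4°C and spun at 21,000xg for 90 min. TMTpro 16plex LC-MS/MS of the supernatant, with channel sums equalised, gave values recorded as log-two fold change in thermal stability against solvent controls, from duplicates.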

[2] = compound: C/C(=N\NC(=O)C1=CC(=CC=C1)S(=O)(=O)N2CCOCC2)/C3=C(C=CC(=C3)Cl)O
Summary of the method: as §1

[3] = compound: C1=CC(=CC=C1C2=NC3=C(N2)C=C(C=C3)C(=O)N)OC4=CC=C(C=C4)Cl
Summary of the method: as §1

[4] = compound: C1=CC2=C(C=CC(=C2)/C=C\3/C(=O)NC(=NCC4=CC=CS4)S3)N=C1
Summary of the method: as §1

[5] = compound: C1=CC2=NC=CN=C2C=C1/C=C/3\C(=O)NC(=O)S3
Summary of the method: as §1

[6] = compound: C1=CC=C(C=C1)C2=NC(=C(N2)C3=CC=NC=C3)C4=CC(=C(C=C4)Cl)O
Summary of the method: as §1

[7] = compound: C1=CC=C2C(=C1)C3=NNC4=CC=CC(=C43)C2=O
Summary of the method: as §1

[8] = compound: C1CCN(C1)C(=O)NC2=CC=CC(=C2)NC3=NC=C(C(=N3)NCCC4=CN=CN4)Br
Summary of the method: as §1

[9] = compound: C1CN(CCC1(CC2=CC=C(C=C2)Cl)N)C3=NC=NC4=C3C=CN4
Summary of the method: as §1

[10] = compound: C1COCCN1CCN2C3=CC=CC=C3N=C2NC(=O)C4=CC(=CC=C4)[N+](=O)[O-] [IRAK-1-4 Inhibitor I]
Summary of the method: as §1

Measured: log2 fold change

DGKH (UniProt Q86XP1)
inactive: [1] -0.063 | [2] -0.055 | [3] 0.01 | [4] -0.248 | [5] 0.132 | [6] -0.035 | [7] -0.137 | [8] -0.06 | [9] -0.003 | [10] 0.11

DNAJC9 (UniProt Q8WXX5)
inactive: [1] -0.015 | [2] 0.02 | [3] 0.012 | [4] 0 | [5] -0.01 | [6] 0.012 | [7] 0.056 | [8] 0.046 | [9] 0.004 | [10] -0.003

DNAL1 (UniProt Q4LDG9)
inactive: [1] -0.048 | [2] 0.066 | [3] 0.101 | [4] 0.11 | [5] -0.177 | [6] 0.09 | [7] -0.07 | [8] 0.029 | [9] -0.135 | [10] 0.111

DHX9 (UniProt Q08211)
inactive: [1] 0.004 | [2] -0.034 | [3] -0.02 | [4] 0.007 | [5] 0.002 | [6] 0.018 | [7] -0.005 | [8] 0.009 | [9] 0.001 | [10] -0.006

DIAPH1 (UniProt H9KV28)
inactive: [1] -0.1 | [2] -0.013 | [3] -0.053 | [4] 0.005 | [5] -0.04 | [6] -0.164 | [7] -0.024 | [8] 0.031 | [9] -0.037 | [10] 0.034

DLG1 isoform 2 (UniProt Q12959)
inactive: [1] -0.019 | [2] 0.014 | [3] 0.026 | [4] -0.039 | [5] 0.027 | [6] 0.004 | [7] -0.023 | [8] -0.02 | [9] 0.097 | [10] 0.026

DNAJC10 (UniProt Q8IXB1)
inactive: [1] -0.03 | [2] 0.022 | [3] -0.016 | [4] 0.05 | [5] -0.006 | [6] -0.01 | [7] 0.012 | [8] -0.028 | [9] 0.01 | [10] -0.033

DNAJC11 (UniProt Q9NVH1)
inactive: [1] -0.008 | [2] -0.002 | [3] -0.055 | [4] 0.01 | [5] 0.021 | [6] -0.021 | [7] -0.041 | [8] 0.007 | [9] 0.024 | [10] -0.021

DIDO1 (UniProt Q9BTC0)
inactive: [1] 0.024 | [2] 0.003 | [3] -0.01 | [4] -0.037 | [5] -0.044 | [6] -0.02 | [7] -0.011 | [8] -0.009 | [9] 0.005 | [10] 0.016

DHCR24 (UniProt Q15392)
inactive: [1] -0.054 | [2] -0.009 | [3] 0.017 | [4] 0.047 | [5] -0.019 | [6] 0.021 | [7] 0.011 | [8] -0.043 | [9] -0.064 | [10] 0.038

DHX8 (UniProt Q14562)
inactive: [1] -0.012 | [2] 0.028 | [3] -0.063 | [4] -0.038 | [5] -0.058 | [6] -0.01 | [7] 0.027 | [8] -0.015 | [9] -0.062 | [10] -0.05

DNAJA3 (UniProt Q96EY1)
inactive: [1] 0.032 | [2] -0.012 | [3] -0.011 | [4] -0.069 | [5] -0.055 | [6] 0.026 | [7] -0.018 | [8] -0.007 | [9] 0.036 | [10] -0.014

DNAJC3 (UniProt Q13217)
inactive: [1] -0.002 | [2] -0.057 | [3] 0.06 | [4] 0.008 | [5] -0.021 | [6] -0.032 | [7] -0.02 | [8] -0.033 | [9] -0.047 | [10] 0.011

DIABLO (UniProt Q9NR28)
inactive: [1] 0.005 | [2] -0.023 | [3] 0.005 | [4] 0.016 | [5] 0.008 | [6] -0.007 | [7] 0.02 | [8] 0.004 | [9] 0.022 | [10] 0.004

DNAH9 (UniProt Q9NYC9)
inactive: [1] -0.028 | [2] 0.027 | [3] 0.045 | [4] -0.037 | [5] -0.027 | [6] -0.021 | [7] 0.027 | [8] 0.014 | [9] -0.004 | [10] 0.025

DHX40 (UniProt Q8IX18)
inactive: [1] -0.073 | [2] -0.03 | [3] -0.038 | [4] 0.047 | [5] 0.02 | [6] -0.001 | [7] 0.008 | [8] -0.028 | [9] 0.024 | [10] -0.069

DMAP1 (UniProt Q9NPF5)
inactive: [1] 0.035 | [2] -0.043 | [3] 0.05 | [4] 0.043 | [5] -0.024 | [6] -0.008 | [7] -0.046 | [8] -0.068 | [9] -0.048 | [10] 0.038

DOK3 (UniProt Q7L591)
inactive: [1] 0.036 | [2] -0.022 | [3] 0.111 | [4] -0.033 | [5] -0.022 | [6] 0.033 | [7] 0.273 | [8] 0.02 | [9] 0.168 | [10] 0.052

DNAJC5 (UniProt Q9H3Z4)
inactive: [1] -0.003 | [2] 0.037 | [3] -0.018 | [4] -0.021 | [5] 0.053 | [6] 0.033 | [7] 0 | [8] 0.049 | [9] -0.005 | [10] -0.012

DKC1 (UniProt O60832)
inactive: [1] -0.015 | [2] 0.013 | [3] 0.019 | [4] -0.006 | [5] -0.014 | [6] -0.014 | [7] 0.017 | [8] -0.001 | [9] 0.003 | [10] 0.028

DOCK8 (UniProt Q8NF50)
inactive: [1] -0.001 | [2] -0.073 | [3] -0.016 | [4] 0.018 | [5] 0.005 | [6] 0.017 | [7] -0.023 | [8] 0.04 | [9] -0.021 | [10] 0.014

Quoted from the entries so far (five entries):
DMAP1 (UniProt Q9NPF5)
inactive: [1] 0.035 | [2] -0.043 | [3] 0.05 | [4] 0.043 | [5] -0.024 | [6] -0.008 | [7] -0.046 | [8] -0.068 | [9] -0.048 | [10] 0.038

DOK3 (UniProt Q7L591)
inactive: [1] 0.036 | [2] -0.022 | [3] 0.111 | [4] -0.033 | [5] -0.022 | [6] 0.033 | [7] 0.273 | [8] 0.02 | [9] 0.168 | [10] 0.052

DNAJC5 (UniProt Q9H3Z4)
inactive: [1] -0.003 | [2] 0.037 | [3] -0.018 | [4] -0.021 | [5] 0.053 | [6] 0.033 | [7] 0 | [8] 0.049 | [9] -0.005 | [10] -0.012

DKC1 (UniProt O60832)
inactive: [1] -0.015 | [2] 0.013 | [3] 0.019 | [4] -0.006 | [5] -0.014 | [6] -0.014 | [7] 0.017 | [8] -0.001 | [9] 0.003 | [10] 0.028

DOCK8 (UniProt Q8NF50)
inactive: [1] -0.001 | [2] -0.073 | [3] -0.016 | [4] 0.018 | [5] 0.005 | [6] 0.017 | [7] -0.023 | [8] 0.04 | [9] -0.021 | [10] 0.014

Continuation:

DNAJC8 (UniProt O75937)
inactive: [1] -0.043 | [2] 0.008 | [3] -0.018 | [4] 0.012 | [5] -0.007 | [6] 0.034 | [7] 0.005 | [8] 0.011 | [9] 0.004 | [10] -0.068

DMTN (UniProt Q08495)
inactive: [1] -0.002 | [2] -0.032 | [3] -0.018 | [4] 0.001 | [5] 0 | [6] 0.009 | [7] -0.022 | [8] 0.023 | [9] 0.015 | [10] -0.005

DHX57 (UniProt Q6P158)
inactive: [1] -0.011 | [2] 0.033 | [3] -0.021 | [4] 0.028 | [5] -0.016 | [6] 0.094 | [7] -0.011 | [8] 0.014 | [9] 0.04 | [10] 0.01

DHX37 (UniProt Q8IY37)
inactive: [1] -0.106 | [2] 0.044 | [3] -0.083 | [4] 0.046 | [5] 0.212 | [6] -0.056 | [7] -0.043 | [8] -0.037 | [9] -0.029 | [10] 0.032

DIAPH1 (UniProt O60610)
inactive: [1] -0.004 | [2] -0.006 | [3] 0.002 | [4] 0.007 | [5] -0.002 | [6] -0.001 | [7] -0.006 | [8] -0.01 | [9] -0.001 | [10] -0.007

DNM1L isoform 2 (UniProt O00429)
inactive: [1] -0.152 | [2] 0.092 | [3] 0.061 | [4] 0.024 | [5] -0.074 | [6] 0.03 | [7] -0.084 | [8] -0.218 | [9] -0.038 | [10] 0.092
